The exact form of at least one protein or probe is not confirmed. Weaker means in comparison with the reference protein, sequence or condition of that experiment. At least one verdict was read from the data and is not stated in words by the source.
Tested on: Rad51
Assay: EMSA
Conditions: EMSA: 1 ng probe, 1 ug poly dG/dC, 120 ng protein, 2 ul of 5x buffer (10 mM HEPES pH 7.5, 10 mM KCl, 10 mM MgCl2, 1 mM DTT, 1 mM EDTA, 10% glycerol), recombinant protein, label: 5'-biotin, single-stranded DNA

AAATCAATCTAAAGTATATATGAGTAAACTTGGTCTGACAGTTACCAATGCTTAATCAGTGAGGCACCTATCTCAGCGATCTGTCTATTT [ssDNA EMSA probe]
binding result (+ Nanog C terminus (inhibitor)): binds more weakly | binding result (+ Nanog CD2 (strongest repression of the C subregions)): binds more weakly | binding result (+ Nanog DB homeodomain (no repressive effect)): binds | binding result (+ Nanog N terminus (no repressive effect)): binds | binding result (+ full-length Nanog (inhibitor)): binds more weakly | binding result (no Nanog, 10 mM MgCl2 in reaction buffer as printed, no ATP listed): binds
